PMC11164680
These are yes or no findings as the source states them, for the method shown. Binding seen in cells or lysates may run through a third protein. Some results given as binding are weak or reduced against the parent protein; the word gives no strength.

By UniProt entry, the sequences of proteins in these tests, tags left out. Residues count along the entry.
UniProt P07237, residues 18-508: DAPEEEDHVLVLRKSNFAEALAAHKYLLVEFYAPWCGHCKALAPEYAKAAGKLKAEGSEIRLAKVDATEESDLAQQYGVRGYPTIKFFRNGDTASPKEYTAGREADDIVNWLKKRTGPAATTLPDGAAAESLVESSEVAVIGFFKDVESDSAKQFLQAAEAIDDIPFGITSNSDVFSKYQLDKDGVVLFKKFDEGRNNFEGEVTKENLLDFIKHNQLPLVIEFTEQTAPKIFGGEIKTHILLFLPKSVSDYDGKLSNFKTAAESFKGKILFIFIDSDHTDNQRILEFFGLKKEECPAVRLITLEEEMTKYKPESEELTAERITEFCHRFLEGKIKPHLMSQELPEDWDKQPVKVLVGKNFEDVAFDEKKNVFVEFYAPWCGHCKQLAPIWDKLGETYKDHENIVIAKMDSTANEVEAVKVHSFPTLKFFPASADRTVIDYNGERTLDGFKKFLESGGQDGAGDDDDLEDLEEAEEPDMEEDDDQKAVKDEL
UniProt O15460, residues 22-535: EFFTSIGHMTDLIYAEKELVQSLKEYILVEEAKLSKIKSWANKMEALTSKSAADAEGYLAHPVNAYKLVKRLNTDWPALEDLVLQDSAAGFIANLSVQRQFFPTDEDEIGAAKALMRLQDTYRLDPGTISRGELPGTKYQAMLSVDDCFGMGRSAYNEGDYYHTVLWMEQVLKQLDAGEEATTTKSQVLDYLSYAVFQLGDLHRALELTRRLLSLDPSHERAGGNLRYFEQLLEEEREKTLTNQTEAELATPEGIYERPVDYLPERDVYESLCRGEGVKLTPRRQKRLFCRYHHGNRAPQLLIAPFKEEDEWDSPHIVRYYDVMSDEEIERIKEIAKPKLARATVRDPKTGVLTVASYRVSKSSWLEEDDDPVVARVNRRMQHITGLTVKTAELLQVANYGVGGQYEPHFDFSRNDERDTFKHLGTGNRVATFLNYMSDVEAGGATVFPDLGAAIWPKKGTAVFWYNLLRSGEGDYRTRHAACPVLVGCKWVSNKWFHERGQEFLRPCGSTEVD

Target: HA-tagged P4HB (UniProt P07237)
Experiment: co-IP; whole-cell lysates of transfected 293T cells; magnetic beads carrying anti-Flag or anti-HA antibodies, 3 h at 4 °C; IP buffer 50 mM Tris-HCl pH 7.5, 150 mM NaCl, 0.5% NP-40, 10% glycerol; immunoblot

binding: binds
Substance: prolyl 4-hydroxylase subunit alpha-2 (P4HA2), endogenous in 293T cells (from UniProt O15460 22-535) (enzyme)
